Measurements taken from PubChem BioAssay AID493036 (Sanford-Burnham Center for Chemical Genomics, 2011).
The list shows a part of the results. Some salts and complexes are drawn in separate pieces, as the source files them; their charges need not balance.

test: agonists of NTR1, primary screen, imaging, U2OS cells, beta-arrestin-GFP, high content (AID 493036) (AID 493036); details: NTR1-U2OS beta-arrestin-GFP spot imaging, agonist mode; measured here: cell count, cytotoxicity flag; at 20 µM

SMILES	cell count
CCc1nc2c(n1)c1c(non1O)c1c2no[n+]1[O-]	52 cells
O=[N+]([O-])c1cc([N+](=O)[O-])c(CCNc2ccccc2)c([N+](=O)[O-])c1	45 cells
CCc1ccc(OP(C)(=O)Nc2cccnc2)cc1 (stereo not given)	68 cells
CP(=O)(Oc1ccccc1)N1CCOC1=O (stereo not given)	40 cells
Cc1ccc(NP(=O)(Oc2ccccc2)Oc2ccccc2)nc1	61 cells
O=C(OCCCN1CCCC1)C(O)(c1ccccc1)C1CCCCC1 (stereo not given)	58 cells
COc1ccccc1OP(C)(=O)Nc1c(C)n(C)n(-c2ccccc2)c1=O (stereo not given)	65 cells
O=[N+]([O-])c1cccc2n[nH]nc12	58 cells
CC(=O)N1C2C3N(C(C)=O)C1C1N(C(C)=O)C(C(N1C(C)=O)N3C(C)=O)N2C(C)=O	35 cells
COc1ccc(OP(C)(=O)Nc2ccc(Br)cc2)cc1 (stereo not given)	75 cells
COc1ccc(C2=NCC(CBr)S2)cc1 (stereo not given)	73 cells
CCN(CC)CC(O)COC(=O)C(O)(c1ccccc1)C1CCCCC1 (stereo not given)	83 cells
CC1CCN(C(=O)Oc2c(Cl)cc(Cl)c3cccnc23)CC1	41 cells
CN(C)C(=O)OCCc1n(C)cc[n+]1C	77 cells
CN(C)C(=O)c1c([N+](=O)[O-])cc([N+](=O)[O-])cc1[N+](=O)[O-]	39 cells
CC(C)=N/N=C(\N)N[N+](=O)[O-]	29 cells
CP(=O)(Nc1ccc(Cl)cc1)Oc1ccc(F)cc1 (stereo not given)	48 cells
CCN(/C(=N/P(=O)(N1CCOCC1)N1CCOCC1)N1CCOCC1)c1ccc(OC)cc1	87 cells
C[N+]1=C2C=CC=CC=C2SC12C([N+](=O)[O-])=CC([N+](=O)[O-])=C[C-]2[N+](=O)[O-] (stereo not given)	58 cells
CC(C)(C)c1ccc(OP(C)(=O)O)cc1	73 cells
Nc1ccc([As](=O)(O)c2ccc(N)cc2)cc1	59 cells
COc1ccccc1OP(C)(=O)Nc1ccccc1Br (stereo not given)	69 cells
CP(=O)(OC12CC3CC(CC(C3)C1)C2)OC12CC3CC(CC(C3)C1)C2	60 cells

SMILES	cell count
O=C(Nc1cc([As](=O)(O)O)ccc1O)c1ccccc1	85 cells
CCOC(=O)c1ccc(NP(C)(=O)Oc2ccc(Cl)cc2)cc1 (stereo not given)	77 cells
Nc1ccc2c(ccc3cccnc32)n1.O=[N+]([O-])c1cc([N+](=O)[O-])c(O)c([N+](=O)[O-])c1	67 cells
O=[N+]([O-])c1cccc(NC2=NCC(CBr)S2)c1 (stereo not given)	36 cells
O=[N+]([O-])c1ncn(CCn2ncnc2[N+](=O)[O-])n1	38 cells
CC(C)(C)C(=O)NC(Sc1ccncn1)C(Cl)(Cl)Cl (stereo not given)	50 cells
COc1ccc(OP(C)(=O)Nc2ccccc2Br)cc1 (stereo not given)	70 cells
Cc1ccc(NP(=O)(Oc2ccccc2F)Oc2ccccc2F)nc1	47 cells
CN(C(=O)Cc1ccc(Cl)c(Cl)c1)[C@H]1CCCC[C@@H]1N1CCCC1	65 cells
COc1ccccc1OP(C)(=O)Nc1ccc(C)c(C)c1 (stereo not given)	38 cells
CCOP(=O)(Nc1ccccc1)OCC	45 cells
Cc1cc(SC(NC(=O)c2ccc(F)cc2)C(Cl)(Cl)Cl)ncn1 (stereo not given)	55 cells
Cc1cc(C)cc(OP(C)(=O)Nc2cccc(C(F)(F)F)c2)c1 (stereo not given)	59 cells
O=P(Nc1nc2ccc(Cl)cc2s1)(c1ccccc1)c1ccccc1	57 cells
O=C(O)c1ccccc1[As](=O)(O)O	51 cells
CC(=O)Nc1ccc([As](=O)(O)O)cc1	77 cells
CP(=O)(OCCOc1ccccc1)OCCOc1ccccc1	51 cells
CP(=O)(Nc1ccc(Cl)cc1Cl)Oc1ccccc1 (stereo not given)	55 cells
CCN(N=Nc1nonc1N)c1nonc1N	29 cells
O=[N+]([O-])c1cc([N+](=O)[O-])c(CCN2CCOCC2)c([N+](=O)[O-])c1	55 cells
Cc1nc2ccc3ccccc3c2o1.O=[N+]([O-])c1cc([N+](=O)[O-])c(O)c([N+](=O)[O-])c1	71 cells
Clc1ccc(Cl)c(NC2=NCC(CBr)S2)c1 (stereo not given)	23 cells
CN(C)CCOC(=O)C(O)(c1ccccc1)C1CCCC1 (stereo not given)	52 cells

SMILES	cell count
CN1CCCC(OC(=O)C(c2ccccc2)c2ccccc2)C1 (stereo not given)	44 cells
Cc1ccc(OP(=O)(Nc2nccs2)Oc2ccc(C)cc2)cc1	77 cells
COc1ccc(OP(C)(=O)Nc2ccccn2)cc1 (stereo not given)	55 cells
COc1ccccc1OP(=O)(Nc1ccc(C)cn1)Oc1ccccc1OC	23 cells
Cc1ccc(N/C(=N/P(=O)(N2CCOCC2)N2CCOCC2)N2CCOCC2)cc1	28 cells
COc1ccccc1OP(C)(=O)Nc1ccc(Br)cc1 (stereo not given)	60 cells
CN(C(=O)Cc1ccc(Cl)c(Cl)c1)[C@H]1CCCC[C@H]1N1CCCC1	45 cells
NC(=O)c1cc([N+](=O)[O-])cc([N+](=O)[O-])c1N	20 cells
CCc1ccc(OP(C)(=O)O)cc1	27 cells
COc1ccccc1OP(C)(=O)Nc1ccc(C)cc1C (stereo not given)	91 cells
CP(=O)(Nc1ccccn1)Oc1ccccc1 (stereo not given)	54 cells
Cc1c2non([O-])c-2c(C)[n+](=O)[n+]1[O-]	84 cells
O=C(NC(Sc1ccncn1)C(Cl)(Cl)Cl)c1ccccc1 (stereo not given)	53 cells
Oc1ccccc1CNc1ccccn1	55 cells
CC(C)CC(=O)NC(Sc1ccc(Cl)cc1)C(Cl)(Cl)Cl (stereo not given)	52 cells
O=[N+]([O-])c1cc([N+](=O)[O-])c(Nc2ccccn2)c([N+](=O)[O-])c1	51 cells
Cc1c(NP(C)(=O)Oc2ccc(C(C)C)cc2)c(=O)n(-c2ccccc2)n1C (stereo not given)	83 cells
Nc1cc(N)c2nonc2c1[N+](=O)[O-]	43 cells
CC(C)c1ccc(OP(C)(=O)Nc2ccc(SC(F)(F)F)cc2)cc1 (stereo not given)	52 cells
CC(C)(C)C(=O)NC(Sc1ccccc1)C(Cl)(Cl)Cl (stereo not given)	47 cells
CP(=O)(Nc1ccccc1F)Oc1ccccc1 (stereo not given)	35 cells
CCOc1ccc(C2=NCC(CBr)S2)cc1 (stereo not given)	40 cells
O=P1(Nc2nc3ccc(Cl)cc3s2)COc2ccccc2O1 (stereo not given)	77 cells

SMILES	cell count
CC(=O)Nc1ccc(Oc2c([N+](=O)[O-])cc([N+](=O)[O-])cc2[N+](=O)[O-])cc1	28 cells
COc1ccc2c(c1O)-c1c(O)c(OC)cc3c1[C@H](C2)[N+](C)(C)CC3.O=[N+]([O-])c1cc([N+](=O)[O-])c([O-])c([N+](=O)[O-])c1[O-]	80 cells
CC(=O)Nc1ccc([As](=O)(O)O)c(O)c1	65 cells
C[C@@H]1C=CCP(=O)(Oc2ccccc2)O1 (stereo not given in full)	61 cells
C[C@H]1OP(=O)(Oc2ccccc2)C[C@@H]2O[C@@H]21 (stereo not given in full)	53 cells
Cc1ccccc1CN(C)C(=O)COC(=O)C(O)(c1ccccc1)c1ccccc1	56 cells
O=C(OCCN1CCN(CCOCc2ccccc2)CC1)C(O)(c1ccccc1)c1ccccc1	60 cells
O=C(OC1CN2CCC1CC2)c1ccc([N+](=O)[O-])cc1 (stereo not given)	55 cells
COc1ccc(OP(C)(=O)Nc2ccc(SC(F)(F)F)cc2)cc1 (stereo not given)	40 cells
CCOC(=O)c1ccc(NP(C)(=O)Oc2ccc(F)cc2)cc1 (stereo not given)	41 cells
Cc1ccc(NP(=O)(Oc2cccc(C)c2)Oc2cccc(C)c2)nc1	41 cells
CCOC(=O)NC(Sc1ccccc1)C(Cl)(Cl)Cl (stereo not given)	85 cells
c1ccc(-c2nn[nH]n2)c(-c2nn[nH]n2)c1	101 cells
CCNC(=S)/N=C(\N)N[N+](=O)[O-]	42 cells
O=C(NC1CCS(=O)(=O)C1)NP(=S)(Oc1ccccc1)Oc1ccccc1 (stereo not given)	59 cells
CN(C)C(=O)Oc1noc2ccccc12	61 cells
CCCCCOc1ccc(NP(C)(=O)Oc2ccc(Cl)cc2Cl)cc1 (stereo not given)	39 cells
O=[N+]([O-])c1cc([N+](=O)[O-])c(OC2CCCCC2O)c([N+](=O)[O-])c1 (stereo not given)	58 cells
Cc1ccccc1OP(=O)(Nc1ccccn1)Oc1ccccc1C	26 cells
CC(NC(=O)COC(=O)C(O)(c1ccccc1)c1ccccc1)c1ccccc1 (stereo not given)	54 cells
CP(=O)(Nc1ccccc1)Oc1ccc(F)cc1 (stereo not given)	40 cells
CCN(CC)CCCOC(=O)C(O)(c1ccccc1)C1CCCCC1 (stereo not given)	87 cells
CCC(=O)N1C2C3N(C(=O)CC)C1C1N(C(=O)CC)C(C(N1C(=O)CC)N3C(=O)CC)N2C(=O)CC	54 cells

SMILES	cell count
O=C(OC1CN2CCC1CC2)c1ccccc1 (stereo not given)	51 cells
CC(=O)NC(SC(=S)N(CC(C)C)CC(C)C)C(Cl)(Cl)Cl (stereo not given)	61 cells
Cc1ccc(OP(=O)(Nc2ccccn2)Oc2ccc(C)cc2)cc1	41 cells
COC(=O)c1cc2c(s1)N=C(c1ccccc1)N(C)P2(=O)N1CCOCC1 (stereo not given)	45 cells
COc1ccc(NP(C)(=O)Oc2ccccc2OC)cc1 (stereo not given)	53 cells
C[C@H]1OP(=O)(Oc2ccccc2)[C@H](O)[C@H](O)[C@H]1N=[N+]=[N-] (stereo not given in full)	57 cells
CN(C)CCOC(=O)C(O)(c1ccccc1)C1CCCCC1 (stereo not given)	48 cells
O=P(Nc1nc2ccccc2s1)(c1ccccc1)c1ccccc1	50 cells
O=P(Nc1ccccn1)(c1ccc(Br)cc1)c1ccc(Br)cc1	32 cells
CN(C)C1(CNC(=O)c2ccc(Cl)c(S(N)(=O)=O)c2)CCCCC1	43 cells
COc1ccc(OP(C)(=O)Nc2cccc(Br)c2)cc1 (stereo not given)	85 cells
O=C(OC1CN2CCC1CC2)c1cccc(Cl)c1 (stereo not given)	65 cells
Nc1ccc([As](=O)(O)c2ccc([N+](=O)[O-])cc2)cc1	55 cells
C(Cc1nn[nH]n1)Cc1nn[nH]n1	78 cells
O=[N+]([O-])c1cc([N+](=O)[O-])c(NCC2CCS(=O)(=O)C2)c([N+](=O)[O-])c1 (stereo not given)	87 cells
O=[As](O)(c1ccccc1)c1ccc(O)cc1	70 cells
O=[N+]([O-])c1ncn(CCn2cnc([N+](=O)[O-])n2)n1	57 cells
c1nnnn1CCn1cnnn1	64 cells
CCOP(C)(=S)SCC(=O)NC(C)(CC)C(=O)O (stereo not given)	86 cells
CC(C)C(=O)NC(Sc1ccccc1)C(Cl)(Cl)Cl (stereo not given)	71 cells
O=P(Nc1nccs1)(c1ccccc1)c1ccccc1	29 cells
CP(=O)(Nc1ccc(SC(F)(F)F)cc1)Oc1ccc(F)cc1 (stereo not given)	58 cells
Cc1ccccc1NP(C)(=O)Nc1ccccc1C	61 cells
